Results reported in patent US20250019644A1, “Quantitatively Mapping Amino Acid Properties (QMAP) Cell Culture Media” (UNIVERSITY OF IOWA RESEARCH FOUNDATION, priority 2023, published 2025).

Test system: HCT116 cells
Assay: Screen 1: stable 13C and 15N isotope tracing of amino acids (LC-MS)
Format: cell-based, human
Settings: 1 mM, 6 hours, QMAP; for number of metabolites that the amino acid provided with 15N nitrogen: 15N amino acid

| SMILES | percentage of aspartate labeled with 13C (13C amino acid) [%] | percentage of citrate labeled with 13C (13C amino acid) [%] | percentage of fumarate labeled with 13C (13C amino acid) [%] | percentage of malate labeled with 13C (13C amino acid) [%] | number of metabolites that the amino acid provided with 13C carbon (13C amino acid) | number of metabolites that the amino acid provided with 15N nitrogen |
| --- | --- | --- | --- | --- | --- | --- |
| NC(=O)C[C@H](N)C(=O)O [Asparagine, L-asparagine] | 8 | 3 | 5 | 5 |  |  |
| NC(=O)CC[C@H](N)C(=O)O [glutamine, L-glutamine] |  |  |  |  | more metabolites than any other amino acid | more metabolites than any other amino acid |
| C[C@H](N)C(=O)O [alanine, L-alanine] |  |  |  |  | more metabolites than any other amino acid | more metabolites than any other amino acid |
